{
  "source": "paper PMC10041537",
  "about": "“Molecular origins of mutational spectra produced by the environmental carcinogen N-nitrosodimethylamine and SN1 chemotherapeutic agents” (NAR Cancer, 2023)",
  "origin": "cited, not measured here",
  "test_system": "DNA",
  "set-up": "method as in PMID 2195323, PMID 7251633",
  "conditions": "cited from earlier work",
  "data": [
    {"smiles": "C[N+]#N", "note": "[methyldiazonium ion]", "values": [
      {"measurement": "3-methyladenine (m3A), share of all DNA adducts", "value": "~3", "unit": "%"},
      {"measurement": "7-methylguanine (m7G), share of all DNA adducts", "value": "~70", "unit": "%"},
      {"measurement": "O^6-methylguanine (m6G), share of all DNA adducts", "value": "~7", "unit": "%"},
      {"measurement": "methyl phosphotriester, share of all DNA adducts", "value": "~15", "unit": "%"}
    ]}
  ]
}
